{
  "sequences": {"note": "By UniProt entry, the sequences of proteins in these tests, tags left out. Where a name states a change or a piece, a line headed by the entry shows the natural chain unless it says otherwise.", "UniProt Q9NP81": "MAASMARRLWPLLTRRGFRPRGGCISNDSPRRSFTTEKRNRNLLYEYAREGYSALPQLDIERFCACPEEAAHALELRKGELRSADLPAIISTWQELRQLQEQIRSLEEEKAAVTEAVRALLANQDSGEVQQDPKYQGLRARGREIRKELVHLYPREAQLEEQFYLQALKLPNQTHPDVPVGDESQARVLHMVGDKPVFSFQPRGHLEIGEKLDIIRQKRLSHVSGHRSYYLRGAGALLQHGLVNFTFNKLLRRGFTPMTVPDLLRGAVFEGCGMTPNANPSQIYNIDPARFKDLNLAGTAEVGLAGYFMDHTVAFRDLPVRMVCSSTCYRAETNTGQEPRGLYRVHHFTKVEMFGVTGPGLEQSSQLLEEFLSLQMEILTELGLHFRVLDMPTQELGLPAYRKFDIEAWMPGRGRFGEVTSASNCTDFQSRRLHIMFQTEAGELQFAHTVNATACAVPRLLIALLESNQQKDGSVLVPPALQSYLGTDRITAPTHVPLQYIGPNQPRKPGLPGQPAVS", "UniProt P49591": "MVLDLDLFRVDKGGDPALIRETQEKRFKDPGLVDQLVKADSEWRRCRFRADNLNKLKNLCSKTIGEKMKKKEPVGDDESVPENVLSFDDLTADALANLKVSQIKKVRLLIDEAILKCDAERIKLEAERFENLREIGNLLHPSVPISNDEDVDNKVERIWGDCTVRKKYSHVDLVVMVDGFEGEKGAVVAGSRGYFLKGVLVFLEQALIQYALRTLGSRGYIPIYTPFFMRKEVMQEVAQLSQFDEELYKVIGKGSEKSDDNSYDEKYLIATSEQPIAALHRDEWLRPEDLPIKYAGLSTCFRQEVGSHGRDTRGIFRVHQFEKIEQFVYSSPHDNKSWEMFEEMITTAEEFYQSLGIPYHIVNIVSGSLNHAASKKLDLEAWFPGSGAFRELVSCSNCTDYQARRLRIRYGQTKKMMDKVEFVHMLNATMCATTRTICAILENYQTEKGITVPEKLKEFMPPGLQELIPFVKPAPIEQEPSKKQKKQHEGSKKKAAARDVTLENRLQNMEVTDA"},
  "source": "the supplement of paper PMC12067093",
  "about": "“Discovery and optimisation of a covalent ligand for TRIM25 and its application to targeted protein ubiquitination” (Chemical Science, 2025)",
  "assay_in_all_cases": "probe-labelled cysteine peptide fold change vs DMSO (competition) (log2 fold change); higher = less target engagement (more negative = stronger competition)",
  "conditions_in_all_cases": "THP-1, incubation time: 4 h",
  "key": {"[1]": {"target": "SARS2_Q9NP81_425_FGEVTSASNCTDFQSR (UniProt Q9NP81)"}, "[2]": {"target": "SARS2_Q9NP81_64_FCACPEEAAHALELR (UniProt Q9NP81)"}, "SARS_P49591_162_IWGDCTVR": {"target": "SARS_P49591_162_IWGDCTVR (UniProt P49591)"}, "[3]": {"target": "SARS_P49591_395+398_ELVSCSNCTDYQAR (UniProt P49591)"}, "[4]": {"target": "SARS_P49591_395_ELVSCSNCTDYQAR (UniProt P49591)"}, "[5]": {"target": "SARS_P49591_398_ELVSCSNCTDYQAR (UniProt P49591)"}, "[6]": {"target": "SARS_P49591_431_VEFVHMLNATMCATTR (UniProt P49591)"}, "[7]": {"target": "SARS_P49591_438_TICAILENYQTEK (UniProt P49591)"}},
  "note": "This is one part of the list.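 Further: competitive chemoproteomic profiling in live THP-1 cells with an iodoacetamide desthiobiotin (IA-DTB) probe, comparing probe-labelled peptide intensities in compound-treated cells against DMSO-treated controls.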",
  "data": [
    {"smiles": "CC1Cc2ccccc2N1C(=O)C1CCCN(C(=O)CCl)C1", "note": "(mixture of isomers) [TRIM25 ligand 11 (diastereomer mixture)]", "values": [
      {"measurement": "probe-labelled cysteine peptide fold change", "setting": "[1]; 10 µM", "value": 0.00527},
      {"measurement": "probe-labelled cysteine peptide fold change", "setting": "[1]; 50 µM", "value": 0.0883},
      {"measurement": "probe-labelled cysteine peptide fold change", "setting": "[2]; 10 µM", "value": 0.0283},
      {"measurement": "probe-labelled cysteine peptide fold change", "setting": "[2]; 50 µM", "value": -0.14},
      {"measurement": "probe-labelled cysteine peptide fold change", "setting": "SARS_P49591_162_IWGDCTVR; 10 µM", "value": -0.0319},
      {"measurement": "probe-labelled cysteine peptide fold change", "setting": "SARS_P49591_162_IWGDCTVR; 50 µM", "value": 0.0727},
      {"measurement": "probe-labelled cysteine peptide fold change", "setting": "[3]; 10 µM", "value": -0.078},
      {"measurement": "probe-labelled cysteine peptide fold change", "setting": "[3]; 50 µM", "value": -0.0883},
      {"measurement": "probe-labelled cysteine peptide fold change", "setting": "[4]; 10 µM", "value": 0.00133},
      {"measurement": "probe-labelled cysteine peptide fold change", "setting": "[4]; 50 µM", "value": 0.134},
      {"measurement": "probe-labelled cysteine peptide fold change", "setting": "[5]; 10 µM", "value": 0.107},
      {"measurement": "probe-labelled cysteine peptide fold change", "setting": "[5]; 50 µM", "value": 0.176},
      {"measurement": "probe-labelled cysteine peptide fold change", "setting": "[6]; 10 µM", "value": 0.102},
      {"measurement": "probe-labelled cysteine peptide fold change", "setting": "[6]; 50 µM", "value": 0.113},
      {"measurement": "probe-labelled cysteine peptide fold change", "setting": "[7]; 10 µM", "value": 0.138},
      {"measurement": "probe-labelled cysteine peptide fold change", "setting": "[7]; 50 µM", "value": 0.0291}
    ]}
  ]
}
